From article PMC11274882
For some assays here: A negative result means that nothing was seen under these conditions. For some assays here: At least one verdict rests on a figure or table, not on a statement of the authors. For some assays here: A weaker result is weaker than the reference pair of the same experiment.

Sequences of proteins named here, by UniProt entry; tags and fusion partners are left off. Residues count along the entry.
UniProt Q9H6I2, 74-145: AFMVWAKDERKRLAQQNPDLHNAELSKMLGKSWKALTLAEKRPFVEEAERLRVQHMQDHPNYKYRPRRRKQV
UniProt O94993, 335-423: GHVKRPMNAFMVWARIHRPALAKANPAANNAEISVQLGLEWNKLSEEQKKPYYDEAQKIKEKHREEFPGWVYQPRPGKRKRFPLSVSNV

Legend:
SOX17 dN HMG-box = SOX17 dN HMG-box (UniProt Q9H6I2); assay: fluorescence polarisation; conditions: some binding at highest concentrations, Kd not determined; FP: 50 mM Tris, 125 mM NaCl, pH 8.0, 80 nM RNA, temperature not stated; recombinant protein; residues 74-145; protein details: 6xHis; label: 3' FAM
SOX30 HMG-box = SOX30 HMG-box (UniProt O94993); assay: EMSA; conditions: used as negative control; EMSA: equal volumes of 100 uM protein and ssDNA, room temperature 15 min, 1.5% agarose, TB buffer pH 7.4; recombinant protein; residues 335-423; protein details: 6xHis; single-stranded DNA

GGUCGCCGUGGCCACUUCGAAAGGGGUGGAAAGGGCGACC [40-mer RNA, ES2 lncRNA hairpin Loop A]
binding result (SOX17 dN HMG-box): binds more weakly

CCCCATCTTAGTATATTAGTTA [22-mer ssDNA]
binding result (SOX30 HMG-box): no binding
